Source: publication PMC8346560
These are yes or no findings as the source states them, for the method shown. For part of these data: In cells and extracts the contact can be indirect. Some binding calls cover weakened binding; strength is not graded here. For part of these data: Tags and fused reporters may be left off the sequences shown.

Columns and labels:
[1] = biological target: T1, Dpb4-HA (S. cerevisiae) (UniProt Q04603); assay: co-IP; total yeast protein extracts (50 mM HEPES pH 7.5, 300 mM NaCl, 20% glycerol); 2 h at 4 °C with Protein G-Dynabeads and anti-HA (12CA5); western blot with anti-HA or anti-Myc (9E10)
T1 sequence: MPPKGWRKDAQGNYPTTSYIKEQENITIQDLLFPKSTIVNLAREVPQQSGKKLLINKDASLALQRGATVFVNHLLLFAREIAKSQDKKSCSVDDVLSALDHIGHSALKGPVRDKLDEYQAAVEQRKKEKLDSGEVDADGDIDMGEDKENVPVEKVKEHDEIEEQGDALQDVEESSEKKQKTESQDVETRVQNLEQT

[2] = biological target: T2, Dpb4^A62S-HA (S. cerevisiae) (UniProt Q04603); assay: as above
T2 sequence: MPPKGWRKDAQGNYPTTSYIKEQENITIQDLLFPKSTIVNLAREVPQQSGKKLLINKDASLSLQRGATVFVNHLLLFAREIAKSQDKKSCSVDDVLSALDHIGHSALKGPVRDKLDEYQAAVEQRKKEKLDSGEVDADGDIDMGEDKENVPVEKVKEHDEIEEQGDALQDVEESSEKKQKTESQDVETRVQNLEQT

[3] = biological target: T3, Dls1-HA (S. cerevisiae) (UniProt P40366); assay: as above
T3 sequence: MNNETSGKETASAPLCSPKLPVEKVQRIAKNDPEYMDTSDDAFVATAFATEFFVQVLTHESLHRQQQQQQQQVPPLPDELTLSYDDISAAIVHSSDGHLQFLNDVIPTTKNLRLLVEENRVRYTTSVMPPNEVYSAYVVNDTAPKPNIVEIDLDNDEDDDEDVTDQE

[4] = biological target: T4, Dpb4 with C-terminal 6xHis-Tag (S. cerevisiae) (UniProt Q04603); assay: tandem affinity co-purification (IMAC then Strep-Tactin); Dpb4-6xHis and Strep-tagged partner co-expressed in E. coli BL21 (DE3); extract purified by immobilized metal affinity chromatography, then on Strep-Tactin resin
T4 sequence: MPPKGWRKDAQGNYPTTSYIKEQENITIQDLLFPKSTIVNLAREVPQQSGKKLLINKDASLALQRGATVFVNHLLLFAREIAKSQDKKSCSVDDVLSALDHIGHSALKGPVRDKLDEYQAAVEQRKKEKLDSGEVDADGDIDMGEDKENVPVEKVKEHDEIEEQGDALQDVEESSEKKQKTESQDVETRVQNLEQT

[5] = biological target: T5, Dpb4^A62S with C-terminal 6xHis-Tag (S. cerevisiae) (UniProt Q04603); assay: as above
T5 sequence: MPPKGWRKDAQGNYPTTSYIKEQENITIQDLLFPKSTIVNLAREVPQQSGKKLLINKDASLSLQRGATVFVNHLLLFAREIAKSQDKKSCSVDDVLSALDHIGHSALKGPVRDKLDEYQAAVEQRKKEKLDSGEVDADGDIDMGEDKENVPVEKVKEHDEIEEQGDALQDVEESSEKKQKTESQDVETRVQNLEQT

[6] = biological target: T6, Dls1 with C-terminal Strep-Tag (S. cerevisiae) (UniProt P40366); assay: as above
T6 sequence: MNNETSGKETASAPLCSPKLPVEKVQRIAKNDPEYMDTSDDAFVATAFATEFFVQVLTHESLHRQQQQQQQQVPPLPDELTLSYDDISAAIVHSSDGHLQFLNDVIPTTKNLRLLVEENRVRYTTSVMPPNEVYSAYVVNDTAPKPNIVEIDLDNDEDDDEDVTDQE

[7] = biological target: T7, Rad9 (S. cerevisiae) (UniProt P14737); assay: co-IP; coimmunoprecipitation of Dpb4 and Rad9, told only in the discussion; no figure or conditions given
T7 sequence: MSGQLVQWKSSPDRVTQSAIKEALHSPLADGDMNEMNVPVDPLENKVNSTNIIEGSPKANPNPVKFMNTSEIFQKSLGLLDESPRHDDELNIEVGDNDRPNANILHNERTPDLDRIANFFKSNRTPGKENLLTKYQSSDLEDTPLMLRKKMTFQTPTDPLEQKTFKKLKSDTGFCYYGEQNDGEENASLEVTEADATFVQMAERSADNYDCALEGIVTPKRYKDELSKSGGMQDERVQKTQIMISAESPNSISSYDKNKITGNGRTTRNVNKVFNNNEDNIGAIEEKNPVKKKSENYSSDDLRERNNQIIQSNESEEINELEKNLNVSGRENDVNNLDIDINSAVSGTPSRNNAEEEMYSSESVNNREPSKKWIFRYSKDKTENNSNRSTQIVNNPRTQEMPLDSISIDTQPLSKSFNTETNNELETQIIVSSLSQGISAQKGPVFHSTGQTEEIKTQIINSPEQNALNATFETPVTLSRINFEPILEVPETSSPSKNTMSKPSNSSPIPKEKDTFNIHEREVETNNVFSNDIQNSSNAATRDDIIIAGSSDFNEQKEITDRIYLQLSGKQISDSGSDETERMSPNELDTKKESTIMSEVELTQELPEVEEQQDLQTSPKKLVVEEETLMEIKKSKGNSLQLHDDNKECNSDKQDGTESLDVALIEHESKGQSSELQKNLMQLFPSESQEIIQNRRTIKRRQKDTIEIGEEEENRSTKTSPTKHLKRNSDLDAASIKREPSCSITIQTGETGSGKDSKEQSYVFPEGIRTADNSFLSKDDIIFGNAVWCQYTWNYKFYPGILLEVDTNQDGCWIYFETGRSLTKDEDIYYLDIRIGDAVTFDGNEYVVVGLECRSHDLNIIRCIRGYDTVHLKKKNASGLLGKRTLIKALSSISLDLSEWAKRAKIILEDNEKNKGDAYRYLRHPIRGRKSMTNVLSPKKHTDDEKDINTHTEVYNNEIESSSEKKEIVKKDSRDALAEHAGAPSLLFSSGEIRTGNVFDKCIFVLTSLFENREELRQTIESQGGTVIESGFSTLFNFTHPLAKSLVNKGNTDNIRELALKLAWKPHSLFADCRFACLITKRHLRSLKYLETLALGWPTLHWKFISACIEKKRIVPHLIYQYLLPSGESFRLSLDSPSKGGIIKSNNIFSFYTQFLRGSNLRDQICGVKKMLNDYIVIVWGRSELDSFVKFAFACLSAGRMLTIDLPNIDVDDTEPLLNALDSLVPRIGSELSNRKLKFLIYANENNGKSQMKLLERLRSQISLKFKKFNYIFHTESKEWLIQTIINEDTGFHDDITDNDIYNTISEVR

B1: Dpb3-Myc (protein, UniProt P27344 1-201)
chain: MSNLVKEKAPVFPISKVKKIAKCDPEYVITSNVAISATAFAAELFVQNLVEESLVLAQLNSKGKTSLRLSLNSIEECVEKRDNFRFLEDAIKQLKKNSALDKKRELNMQPGRSDQEVVIEEPELHEDDGVEEEEEEDEVSEEEEPVHNEELLDDSKDQQNDKSTRSVASLLSRFQYKSALDVGEHSDSSDIEVDHTKSTDP
binding [1]: binds | binding [2]: binds

B2: Dpb4-Myc (protein, UniProt Q04603 1-196)
chain: MPPKGWRKDAQGNYPTTSYIKEQENITIQDLLFPKSTIVNLAREVPQQSGKKLLINKDASLALQRGATVFVNHLLLFAREIAKSQDKKSCSVDDVLSALDHIGHSALKGPVRDKLDEYQAAVEQRKKEKLDSGEVDADGDIDMGEDKENVPVEKVKEHDEIEEQGDALQDVEESSEKKQKTESQDVETRVQNLEQT
binding [3]: binds

B3: Dpb4^A62S-Myc (protein, UniProt Q04603 1-196)
chain: MPPKGWRKDAQGNYPTTSYIKEQENITIQDLLFPKSTIVNLAREVPQQSGKKLLINKDASLSLQRGATVFVNHLLLFAREIAKSQDKKSCSVDDVLSALDHIGHSALKGPVRDKLDEYQAAVEQRKKEKLDSGEVDADGDIDMGEDKENVPVEKVKEHDEIEEQGDALQDVEESSEKKQKTESQDVETRVQNLEQT
binding [3]: binds

B4: Dpb3 with C-terminal Strep-Tag (protein, UniProt P27344 1-201)
chain: MSNLVKEKAPVFPISKVKKIAKCDPEYVITSNVAISATAFAAELFVQNLVEESLVLAQLNSKGKTSLRLSLNSIEECVEKRDNFRFLEDAIKQLKKNSALDKKRELNMQPGRSDQEVVIEEPELHEDDGVEEEEEEDEVSEEEEPVHNEELLDDSKDQQNDKSTRSVASLLSRFQYKSALDVGEHSDSSDIEVDHTKSTDP
binding [4]: binds | binding [5]: binds

B5: Dpb4 with C-terminal 6xHis-Tag (protein, UniProt Q04603 1-196)
chain: MPPKGWRKDAQGNYPTTSYIKEQENITIQDLLFPKSTIVNLAREVPQQSGKKLLINKDASLALQRGATVFVNHLLLFAREIAKSQDKKSCSVDDVLSALDHIGHSALKGPVRDKLDEYQAAVEQRKKEKLDSGEVDADGDIDMGEDKENVPVEKVKEHDEIEEQGDALQDVEESSEKKQKTESQDVETRVQNLEQT
binding [6]: binds

B6: Dpb4^A62S with C-terminal 6xHis-Tag (protein, UniProt Q04603 1-196)
chain: MPPKGWRKDAQGNYPTTSYIKEQENITIQDLLFPKSTIVNLAREVPQQSGKKLLINKDASLSLQRGATVFVNHLLLFAREIAKSQDKKSCSVDDVLSALDHIGHSALKGPVRDKLDEYQAAVEQRKKEKLDSGEVDADGDIDMGEDKENVPVEKVKEHDEIEEQGDALQDVEESSEKKQKTESQDVETRVQNLEQT
binding [6]: binds

B7: Dpb4 (protein, UniProt Q04603 1-196)
chain: MPPKGWRKDAQGNYPTTSYIKEQENITIQDLLFPKSTIVNLAREVPQQSGKKLLINKDASLALQRGATVFVNHLLLFAREIAKSQDKKSCSVDDVLSALDHIGHSALKGPVRDKLDEYQAAVEQRKKEKLDSGEVDADGDIDMGEDKENVPVEKVKEHDEIEEQGDALQDVEESSEKKQKTESQDVETRVQNLEQT
binding [7]: no binding
